No constants are given. Whether binding was seen depends on the method and setting. Some entries that bind do so weakly or less than the wild type.
T1: transmembrane-4 L six family member-1 (TM4SF1) (human) (UniProt P30408)
T1 sequence: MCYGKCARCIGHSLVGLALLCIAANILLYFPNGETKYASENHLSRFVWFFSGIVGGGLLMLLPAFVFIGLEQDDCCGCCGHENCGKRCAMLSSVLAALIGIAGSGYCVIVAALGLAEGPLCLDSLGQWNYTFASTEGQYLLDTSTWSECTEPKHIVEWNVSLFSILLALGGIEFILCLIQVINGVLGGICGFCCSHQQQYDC

B1: murine monoclonal antibody AGX-A03 (antibody, V domains shown)
VH: QIQLVQSGPELKKPGETVKISCKASGYSFRDYGMNWVKQAPGRTFKWMGWINTYTGAPVYAADFKGRFAFSLDTSASAAFLQINNLKNEDTATYFCARWVSYGNNRNWFFDFWGAGTTVTVSS
VL: DVLMTQTPLSLPVRLGDQASISCRSSQTLVHSNGNTYLEWYLQKPGQSPKLLIYKVSNRLSGVPDRFSGSGSGTDFTLKISRVETEDLGVYYCFQGSHGPWTFGGGTKLEIK
B2: murine monoclonal antibody AGX-A04 (antibody, V domains shown)
VH: EVQLQQSGPELVKPGASVKISCKTSGYTFTDYTMHWVRQSHGKSLEWIGSFNPNNGGLTNYNQKFKGKATLTVDKSSSTVYMDLRSLTSEDSAVYYCTRIRATGFDSWGQGTTLTVSS
VL: DIVMSQSPSSLAVSAGEKVTMSCKSSQSLLNSRTRKNYLAWYQQKPGQSPKLLIYWASTRESGVPDRFTGSGSGTDFTLTISNVQAEDLTVYYCKQSYNPPWTFGGGTKLEIK
B3: murine monoclonal antibody AGX-A05 (antibody, V domains shown)
VH: EVQVQQSGPELVKPGASVKMSCKASGYTFTSYVMHWVKQKPGQGLEWIGYINPNNDNINYNEKFKGKASLTSDKSSNTVYMELSSLTSEDSAVYYCAGYGNSGANWGQGTLVTVSA
VL: DIQMTQSPASLSASVGETVTITCRTSKNIFNFLAWYHQKQGRSPRLLVSHTKTLAAGVPSRFSGSGSGTQFSLKINSLQPEDFGIYYCQHHYGTPWTFGGGTKLEIK
B4: murine monoclonal antibody AGX-A07 (antibody, V domains shown)
VH: QIQLVQSGPELKKPGETVKISCKASGYTFTNYGVKWVKQAPGKDLKWMGWINTYTGNPIYAADFKGRFAFSLETSASTAFLQINNLKNEDTATYFCVRFQYGDYRYFDVWGAGTTVTVSS
VL: QIILSQSPAILSASPGEKVTMTCRANSGISFINWYQQKPGSSPKPWIYGTANLASGVPARFGGSGSGTSYSLTISRVEAEDAATYYCQQWSSNPLTFGAGTKLELR
B5: murine monoclonal antibody AGX-A08 (antibody, V domains shown)
VH: EVQLQQSGPELVKPGASVKLSCKASGYTVTSYVMHWVKQKPGQGLEWIGYINPYSDVTNCNEKFKGKATLTSDKTSSTAYMELSSLTSEDSAVYYCSSYGGGFAYWGQGTLVTVSA
VL: DIQMTQSPASLSASVGEPVTITCRASKNIYTYLAWYHQKQGKSPQFLVYNARTLAGGVPSRLSGSGSVTQFSLNINTLHREDLGTYFCQHHYDTPYTFGGGTNLEIK
B6: murine monoclonal antibody AGX-A09 (antibody, V domains shown)
VH: EVQLQQSGPELVKPGASVKMSCKASGYTFSSYVMHWVKQKPGQGLEWIGYINPYSDVTNYNEKFKGKATLTSDRSSNTAYMELSSLTSEDSAVYYCARNYFDWGRGTLVTVSA
VL: DIQMTQSPASLSASVGETVTITCRASKNVYSYLAWFQQKQGKSPQLLVYNAKTLAEGVPSRFSGGGSGTQFSLKINSLQPADFGSYYCQHHYNIPFTFGSGTKLEIK

biological target: T1, transmembrane-4 L six family member-1 (TM4SF1) (human); assay: screen, method not described

binding, binds:
B1
B2
B3
B4
B5
B6
